Here are results for 18 compounds from PubChem BioAssay AID248 (DTP/NCI, 2004).

The list is a part of this screen's results and no random one: it gathers tests that were run many times, whatever their T/C, doses with no T/C, and many T/C values between a quarter and a half above the control. Other doses and runs of a compound stand elsewhere. T/C: endpoint of the treated group in % of that of the vehicle group. Some doses have a count of surviving animals in place of a T/C: the source holds a T/C of zero for them, seemingly a mark for toxic or unscored doses. Some doses without a T/C left all or most animals alive at the check, yet need not have been tolerated: the source hardly ever lists a survival T/C far under the control, and the zero likely stands for such cases as well. Survivors were counted at the toxicity check, usually on the fifth day, unless a day is given; later deaths do not show. Schedules are NCI's codes, taken here to give the interval after Q, in days (D) or hours (H), and the number of doses after X. Some schedules carry Z or #; the key to these is not given. Counts like (3×) give the number of equal values in this list. For survival time, this PubChem deposit counts one and a half times the control or more as active, and values a quarter to a half above the control carry no call in these data; other NCI protocols may use other cut-offs. Some doses were run more than once; the values are given in rising order. Some T/C values carry the count of animals alive at the toxicity check (mostly the fifth day); without a count, all were alive then.

The assay has as its system L1210 leukemia ip in BDF1 mice, survival T/C. Briefly: NCI In Vivo Anticancer Drug Screen. Data for tumor model L1210 Leukemia (intraperitoneal) in B6D2F1 (BDF1) mice. To be noted: T/C endpoint: mean survival time, higher T/C = longer survival.
[1] abbreviates: dose: 200.0 mg/kg/injection, schedule: Q04DX003 (ip), vehicle: saline.
[2] abbreviates: dose: 400.0 mg/kg/injection, schedule: Q04DX003 (ip), vehicle: saline.
[3] abbreviates: dose: 400.0 mg/kg/injection, schedule: Q01DX001 (ip), vehicle: saline.
[4] abbreviates: dose: 200.0 mg/kg/injection, schedule: Q04DX003 (ip), vehicle: saline with Tween-80.
[5] abbreviates: dose: 400.0 mg/kg/injection, schedule: Q04DX003 (ip), vehicle: saline with Tween-80.
Where [6] appears, read: dose: 200.0 mg/kg/injection, schedule: Q04DX003 (ip), vehicle: Klucel (hydroxypropylcellulose) (HPC).
Setting [7] is: dose: 400.0 mg/kg/injection, schedule: Q04DX003 (ip), vehicle: Klucel (hydroxypropylcellulose) (HPC).

Take `CC1CN1c1cc(O)c(N2CC2C)cc1O` (configuration not stated): the T/C is, setting by setting: (dose: 1.2 mg/kg/injection, schedule: Q01DX Z (ip), vehicle: methylcellulose (MC)) 139 % of control; (dose: 2.7 mg/kg/injection, schedule: Q01DX Z (ip), vehicle: carboxymethylcellulose (CMC)) 129 % of control; (dose: 2.7 mg/kg/injection, schedule: Q01DX Z (ip), vehicle: methylcellulose (MC)) 128 and 145 % of control. Further, the survivor count is 0 of 6 (dose: 6.0 mg/kg/injection, schedule: Q01DX Z (ip), vehicle: methylcellulose (MC)); 5 of 6 (dose: 9.0 mg/kg/injection, schedule: Q01DX Z (ip), vehicle: carboxymethylcellulose (CMC)); 5 of 6 (dose: 9.0 mg/kg/injection, schedule: Q01DX Z (ip), vehicle: methylcellulose (MC)); 0 of 6 (dose: 13.5 mg/kg/injection, schedule: Q01DX Z (ip), vehicle: carboxymethylcellulose (CMC)); 2 of 6 (dose: 13.5 mg/kg/injection, schedule: Q01DX Z (ip), vehicle: methylcellulose (MC)); 0 of 6 (dose: 20.0 mg/kg/injection, schedule: Q01DX Z (ip), vehicle: carboxymethylcellulose (CMC)). The survivor count is, setting by setting: (dose: 20.0 mg/kg/injection, schedule: Q01DX Z (ip), vehicle: methylcellulose (MC)) 0 of 6; (dose: 40.0 mg/kg/injection, schedule: Q01DX009 (ip), vehicle: saline) 0 of 6; (dose: 75.0 mg/kg/injection, schedule: Q01DX001 (ip), vehicle: saline) 2 of 6; (dose: 150.0 mg/kg/injection, schedule: Q01DX001 (ip), vehicle: saline) 0 of 6; (dose: 300.0 mg/kg/injection, schedule: Q01DX001 (ip), vehicle: saline) 0 of 6.
`ClCOCCCCOCCl`: the survivor count (dose: 200.0 mg/kg/injection, schedule: Q01DX009 (ip), vehicle: saline) is reported as 0 of 3.
Turning to `CC(=O)Nc1ccc(OC(=O)Nc2ccc(F)c([N+](=O)[O-])c2)cc1`, the survivor count (dose: 400.0 mg/kg/injection, schedule: Q01DX009 (ip), vehicle: Klucel (hydroxypropylcellulose) (HPC)) is 2 of 6.
For `OC(CNc1ccccc1)CN1CCCCC1` (configuration not stated), the survivor count is given as 3 of 6 under setting [1] and 0 of 6 under setting [2].
Regarding `Oc1ccc(CNCCNCCNCc2ccc(O)cc2)cc1`, the survivor count under setting [1] is listed as 3 of 6; the survivor count (dose: 400.0 mg/kg/injection, schedule: Q01DX009 (ip), vehicle: saline) is reported as 0 of 6; the survivor count under setting [2] is given as 0 of 6.
On to `CCN(CC)C(=O)C1CCC(CCc2c[nH]c3ccccc23)NC1` (configuration not stated), for which the survivor count is 1 of 6 (dose: 200.0 mg/kg/injection, schedule: Q01DX001 (ip), vehicle: saline) and 0 of 6 under setting [3].
Turning to `Nc1ncnc2c1ccn2C1CCCC1`, the survivor count (dose: 200.0 mg/kg/injection, schedule: Q01DX001 (ip), vehicle: carboxymethylcellulose (CMC)) is 0 of 4.
For the compound `COc1ccc(C2C3CCC(C3)C2N)cc1` (configuration not stated), the survivor count runs as follows: (dose: 40.0 mg/kg/injection, schedule: Q01DX009 (ip), vehicle: saline with Tween-80) 0 of 6; (dose: 100.0 mg/kg/injection, schedule: Q04DX003 (ip), vehicle: saline with Tween-80) 0 of 6; under setting [4], 0 of 6 (2×); under setting [5], 0 of 6 (2×).
With `CCCCc1ccc(-n2c(C)c(COC(=O)NC)c(COC(=O)NC)c2C)cc1`, the T/C is, setting by setting: (dose: 12.5 mg/kg/injection, schedule: Q01DX009 (ip), vehicle: Klucel (hydroxypropylcellulose) (HPC)) 125 % of control [9 of 10 alive]; (dose: 25.0 mg/kg/injection, schedule: Q01DX009 (ip), vehicle: Klucel (hydroxypropylcellulose) (HPC)) 134 % of control; (dose: 50.0 mg/kg/injection, schedule: Q01DX009 (ip), vehicle: Klucel (hydroxypropylcellulose) (HPC)) 145 % of control. Moreover, the survivor count (dose: 100.0 mg/kg/injection, schedule: Q01DX009 (ip), vehicle: Klucel (hydroxypropylcellulose) (HPC)) is given as 5 of 10.
As to `Cc1ccc(C(=O)C[S+](C)C)c(C)c1`, the survivor count is, setting by setting: (dose: 100.0 mg/kg/injection, schedule: Q01DX009 (ip), vehicle: saline) 2 of 6; under setting [4], 1 of 6; under setting [5], 2 of 6.
Consider `Cc1ccc2c(c1)CC(C)([CH2][Hg][Cl])O2` (configuration not stated), for which the survivor count is, setting by setting: (dose: 12.0 mg/kg/injection, schedule: Q01DX009 (ip), vehicle: Klucel (hydroxypropylcellulose) (HPC)) 6 of 6; (dose: 12.5 mg/kg/injection, schedule: Q04DX003 (ip), vehicle: Klucel (hydroxypropylcellulose) (HPC)) 3 of 6; (dose: 25.0 mg/kg/injection, schedule: Q04DX003 (ip), vehicle: Klucel (hydroxypropylcellulose) (HPC)) 0 of 6; (dose: 50.0 mg/kg/injection, schedule: Q04DX003 (ip), vehicle: Klucel (hydroxypropylcellulose) (HPC)) 0 of 6; (dose: 100.0 mg/kg/injection, schedule: Q04DX003 (ip), vehicle: Klucel (hydroxypropylcellulose) (HPC)) 0 of 6; under setting [6], 0 of 6. Besides, the survivor count under setting [7] is listed as 0 of 6.
Regarding `COc1cc2c(cc1OC)C(C)=[N+](C)CC2`, the survivor count is 6 of 6 (dose: 100.0 mg/kg/injection, schedule: Q04DX003 (ip), vehicle: acetone); 0 of 6 (dose: 200.0 mg/kg/injection, schedule: Q04DX003 (ip), vehicle: acetone); 0 of 6 (dose: 400.0 mg/kg/injection, schedule: Q04DX003 (ip), vehicle: acetone).
Consider `COC(=O)c1[nH]cnc1/N=N/N(C)CCO`, for which the T/C reads like this: (dose: 177.0 mg/kg/injection, schedule: Q01DX015 (ip), vehicle: saline) 125 % of control; (dose: 266.0 mg/kg/injection, schedule: Q01DX015 (ip), vehicle: saline) 138 % of control; (dose: 400.0 mg/kg/injection, schedule: Q01DX015 (ip), vehicle: saline) 146 % of control.
`CC1(C)N=C(N)N=C(N)N1c1cccc(OCCC#N)c1`: the survivor count is reported as 0 of 3 under setting [1] and 0 of 3 under setting [2].
As for `NC(N)=NC(N)=Nc1ccc(Cl)cc1`, the survivor count is on record as 1 of 6 under setting [6] and 0 of 6 under setting [7].
In the case of `Cc1cc(=O)[nH]c(N2CCOCC2)n1`, the survivor count under setting [3] is on record as 2 of 4.
For `O=NN1CCCNC1=O`, for the setting “dose: 25.0 mg/kg/injection, schedule: Q01DX Z (ip), vehicle: carboxymethylcellulose (CMC)”, the T/C was 128 % of control. The survivor count reads like this: (dose: 125.0 mg/kg/injection, schedule: Q01DX Z (ip), vehicle: carboxymethylcellulose (CMC)) 5 of 6; (dose: 150.0 mg/kg/injection, schedule: Q01DX Z (ip), vehicle: carboxymethylcellulose (CMC)) 3 of 6.
With `Cc1ccc(S(=O)(=O)NC(=O)C(C)Br)cc1` (configuration not stated), the survivor count (dose: 75.0 mg/kg/injection, schedule: Q01DX001 (ip), vehicle: steroid suspending solution) was 6 of 6.
